Laboratory results: the supplement of paper PMC10849652
This is one part of the list. Residues, ends and D or L forms follow the SMILES beside them. *: point of attachment. Cbz = O=C(OCc1ccccc1)*

By UniProt entry, the sequences of proteins in these tests, tags left out. Where a name states a change or a piece, a line headed by the entry shows the natural chain unless it says otherwise.
UniProt Q15276: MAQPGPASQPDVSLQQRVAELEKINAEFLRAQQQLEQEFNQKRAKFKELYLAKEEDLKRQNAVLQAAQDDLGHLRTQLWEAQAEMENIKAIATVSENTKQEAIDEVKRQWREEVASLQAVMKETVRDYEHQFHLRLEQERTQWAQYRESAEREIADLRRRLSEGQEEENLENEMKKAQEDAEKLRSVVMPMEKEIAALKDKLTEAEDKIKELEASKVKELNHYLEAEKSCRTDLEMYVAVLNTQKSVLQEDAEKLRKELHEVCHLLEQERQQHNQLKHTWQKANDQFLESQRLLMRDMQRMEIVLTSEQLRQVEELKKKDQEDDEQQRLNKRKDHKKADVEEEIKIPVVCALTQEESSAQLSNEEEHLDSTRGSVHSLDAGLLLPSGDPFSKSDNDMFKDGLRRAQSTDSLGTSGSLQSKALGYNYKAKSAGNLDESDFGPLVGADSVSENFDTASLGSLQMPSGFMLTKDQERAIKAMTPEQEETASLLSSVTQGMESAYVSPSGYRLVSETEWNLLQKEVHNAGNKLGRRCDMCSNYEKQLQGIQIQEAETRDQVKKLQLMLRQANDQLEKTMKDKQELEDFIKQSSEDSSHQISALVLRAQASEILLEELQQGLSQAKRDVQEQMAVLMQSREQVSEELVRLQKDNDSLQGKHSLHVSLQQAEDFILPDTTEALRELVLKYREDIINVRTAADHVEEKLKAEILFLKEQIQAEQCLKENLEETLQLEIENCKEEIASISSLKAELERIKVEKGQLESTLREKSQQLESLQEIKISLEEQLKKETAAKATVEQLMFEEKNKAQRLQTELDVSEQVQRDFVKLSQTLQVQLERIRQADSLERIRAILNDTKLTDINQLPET
UniProt Q3YEC7: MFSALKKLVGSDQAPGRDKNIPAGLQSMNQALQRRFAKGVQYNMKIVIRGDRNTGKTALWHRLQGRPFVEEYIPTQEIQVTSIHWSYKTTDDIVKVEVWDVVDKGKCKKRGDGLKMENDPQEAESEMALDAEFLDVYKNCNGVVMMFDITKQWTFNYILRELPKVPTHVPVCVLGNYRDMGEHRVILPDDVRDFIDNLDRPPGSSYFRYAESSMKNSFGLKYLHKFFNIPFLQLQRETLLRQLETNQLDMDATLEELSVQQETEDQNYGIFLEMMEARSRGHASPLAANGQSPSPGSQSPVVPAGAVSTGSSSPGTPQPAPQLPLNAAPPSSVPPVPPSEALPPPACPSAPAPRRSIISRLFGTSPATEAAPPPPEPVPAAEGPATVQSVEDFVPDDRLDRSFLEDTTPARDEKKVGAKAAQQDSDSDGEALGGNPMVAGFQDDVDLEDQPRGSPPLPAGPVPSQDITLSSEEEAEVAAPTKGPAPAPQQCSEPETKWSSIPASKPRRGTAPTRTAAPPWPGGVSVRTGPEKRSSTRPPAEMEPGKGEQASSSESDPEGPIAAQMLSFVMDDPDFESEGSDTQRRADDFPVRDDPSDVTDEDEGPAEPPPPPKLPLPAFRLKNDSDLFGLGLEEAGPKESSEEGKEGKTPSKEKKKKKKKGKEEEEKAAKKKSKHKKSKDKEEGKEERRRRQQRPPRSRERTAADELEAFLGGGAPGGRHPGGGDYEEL
UniProt Q969Q5: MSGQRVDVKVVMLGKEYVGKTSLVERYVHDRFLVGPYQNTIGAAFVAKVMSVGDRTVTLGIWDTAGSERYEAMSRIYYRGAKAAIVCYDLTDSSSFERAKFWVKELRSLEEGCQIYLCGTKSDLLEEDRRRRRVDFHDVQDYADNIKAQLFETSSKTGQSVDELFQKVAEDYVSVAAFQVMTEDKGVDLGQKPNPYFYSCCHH
UniProt P47224: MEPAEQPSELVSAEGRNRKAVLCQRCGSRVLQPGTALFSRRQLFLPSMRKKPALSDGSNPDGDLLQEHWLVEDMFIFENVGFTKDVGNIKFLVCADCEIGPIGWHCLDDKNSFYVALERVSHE
UniProt P61020: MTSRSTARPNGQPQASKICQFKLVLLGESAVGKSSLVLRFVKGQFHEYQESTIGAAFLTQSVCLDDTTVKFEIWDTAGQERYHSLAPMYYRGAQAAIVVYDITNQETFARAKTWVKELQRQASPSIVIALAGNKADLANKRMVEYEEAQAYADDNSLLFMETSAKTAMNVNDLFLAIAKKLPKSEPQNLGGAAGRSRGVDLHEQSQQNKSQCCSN
UniProt P61018: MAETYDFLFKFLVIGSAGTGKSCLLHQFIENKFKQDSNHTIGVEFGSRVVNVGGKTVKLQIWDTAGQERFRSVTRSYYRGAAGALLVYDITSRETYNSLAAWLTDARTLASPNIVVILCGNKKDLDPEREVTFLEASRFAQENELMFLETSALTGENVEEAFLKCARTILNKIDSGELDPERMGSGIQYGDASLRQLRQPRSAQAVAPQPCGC
UniProt Q8TEU7: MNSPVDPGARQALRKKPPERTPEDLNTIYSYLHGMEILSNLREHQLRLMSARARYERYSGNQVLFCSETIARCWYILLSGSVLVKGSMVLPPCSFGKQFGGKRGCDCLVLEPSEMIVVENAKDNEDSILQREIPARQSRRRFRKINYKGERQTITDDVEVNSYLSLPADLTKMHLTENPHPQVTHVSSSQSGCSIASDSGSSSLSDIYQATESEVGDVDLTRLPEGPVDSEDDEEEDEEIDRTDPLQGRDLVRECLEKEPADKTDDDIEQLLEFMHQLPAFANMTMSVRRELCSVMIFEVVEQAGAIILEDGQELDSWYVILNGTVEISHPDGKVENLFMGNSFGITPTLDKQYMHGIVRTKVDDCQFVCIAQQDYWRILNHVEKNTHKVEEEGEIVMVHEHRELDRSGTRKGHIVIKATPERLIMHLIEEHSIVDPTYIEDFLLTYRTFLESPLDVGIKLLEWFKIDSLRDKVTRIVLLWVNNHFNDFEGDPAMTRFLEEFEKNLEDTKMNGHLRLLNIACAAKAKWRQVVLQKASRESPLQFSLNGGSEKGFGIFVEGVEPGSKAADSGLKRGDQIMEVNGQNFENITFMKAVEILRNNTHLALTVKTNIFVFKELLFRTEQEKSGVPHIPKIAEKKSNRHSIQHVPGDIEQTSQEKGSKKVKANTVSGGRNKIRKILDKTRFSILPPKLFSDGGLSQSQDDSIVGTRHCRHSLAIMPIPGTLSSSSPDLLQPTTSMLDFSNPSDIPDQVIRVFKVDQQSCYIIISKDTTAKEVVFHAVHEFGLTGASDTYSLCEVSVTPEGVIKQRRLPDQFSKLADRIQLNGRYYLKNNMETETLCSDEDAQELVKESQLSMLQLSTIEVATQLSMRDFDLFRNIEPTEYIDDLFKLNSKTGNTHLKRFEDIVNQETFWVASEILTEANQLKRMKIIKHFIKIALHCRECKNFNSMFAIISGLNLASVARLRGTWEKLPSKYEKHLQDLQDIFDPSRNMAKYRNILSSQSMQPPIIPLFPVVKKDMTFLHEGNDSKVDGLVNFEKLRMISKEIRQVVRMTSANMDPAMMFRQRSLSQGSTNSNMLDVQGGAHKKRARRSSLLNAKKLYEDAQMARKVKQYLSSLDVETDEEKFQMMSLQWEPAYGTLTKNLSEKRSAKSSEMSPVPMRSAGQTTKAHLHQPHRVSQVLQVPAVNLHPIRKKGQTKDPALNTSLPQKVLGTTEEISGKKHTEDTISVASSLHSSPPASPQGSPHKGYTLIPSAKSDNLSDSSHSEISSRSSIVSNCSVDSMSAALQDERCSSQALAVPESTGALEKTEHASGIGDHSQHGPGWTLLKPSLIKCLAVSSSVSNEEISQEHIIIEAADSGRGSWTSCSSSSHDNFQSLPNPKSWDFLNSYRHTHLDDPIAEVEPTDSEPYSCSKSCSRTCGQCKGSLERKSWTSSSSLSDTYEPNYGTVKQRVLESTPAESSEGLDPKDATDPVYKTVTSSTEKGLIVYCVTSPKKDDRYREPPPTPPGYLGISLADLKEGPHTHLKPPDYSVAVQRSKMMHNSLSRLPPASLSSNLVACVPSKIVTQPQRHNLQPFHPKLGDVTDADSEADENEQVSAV
UniProt O43251: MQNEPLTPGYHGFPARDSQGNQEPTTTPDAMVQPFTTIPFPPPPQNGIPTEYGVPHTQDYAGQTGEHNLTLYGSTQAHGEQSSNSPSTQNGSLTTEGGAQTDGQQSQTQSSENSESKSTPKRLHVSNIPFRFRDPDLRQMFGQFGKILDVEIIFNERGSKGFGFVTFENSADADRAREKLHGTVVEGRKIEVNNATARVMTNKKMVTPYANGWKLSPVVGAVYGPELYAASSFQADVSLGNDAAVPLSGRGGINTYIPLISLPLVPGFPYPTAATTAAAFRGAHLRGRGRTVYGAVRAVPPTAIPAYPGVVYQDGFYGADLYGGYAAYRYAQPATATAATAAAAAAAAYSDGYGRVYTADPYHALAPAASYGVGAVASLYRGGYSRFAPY
UniProt Q9H0H5: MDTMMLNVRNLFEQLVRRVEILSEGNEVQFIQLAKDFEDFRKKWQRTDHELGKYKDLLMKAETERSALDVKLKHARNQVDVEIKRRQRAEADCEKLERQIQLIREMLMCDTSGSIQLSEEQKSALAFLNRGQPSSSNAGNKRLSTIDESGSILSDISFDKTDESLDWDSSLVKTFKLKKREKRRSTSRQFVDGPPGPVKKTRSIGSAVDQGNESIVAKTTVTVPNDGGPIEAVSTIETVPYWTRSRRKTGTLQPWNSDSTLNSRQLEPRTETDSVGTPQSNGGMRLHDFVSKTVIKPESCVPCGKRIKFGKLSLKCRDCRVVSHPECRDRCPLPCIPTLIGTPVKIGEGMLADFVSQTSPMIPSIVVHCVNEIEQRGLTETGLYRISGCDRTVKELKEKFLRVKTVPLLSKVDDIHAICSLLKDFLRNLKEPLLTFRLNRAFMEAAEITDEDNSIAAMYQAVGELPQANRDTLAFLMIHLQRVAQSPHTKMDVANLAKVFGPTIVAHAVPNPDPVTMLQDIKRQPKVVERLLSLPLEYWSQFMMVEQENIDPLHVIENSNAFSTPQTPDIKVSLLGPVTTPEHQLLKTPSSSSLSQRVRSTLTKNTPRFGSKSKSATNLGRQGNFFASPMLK
UniProt Q96B01: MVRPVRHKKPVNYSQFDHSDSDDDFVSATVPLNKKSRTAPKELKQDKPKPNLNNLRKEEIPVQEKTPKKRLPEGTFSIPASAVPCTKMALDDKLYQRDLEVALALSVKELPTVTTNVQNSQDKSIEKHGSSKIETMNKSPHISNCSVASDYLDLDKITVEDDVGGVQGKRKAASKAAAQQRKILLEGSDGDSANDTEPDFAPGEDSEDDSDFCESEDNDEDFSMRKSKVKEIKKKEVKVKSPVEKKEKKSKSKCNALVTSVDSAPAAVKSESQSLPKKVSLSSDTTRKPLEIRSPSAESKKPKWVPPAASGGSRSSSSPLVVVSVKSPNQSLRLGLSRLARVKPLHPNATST
UniProt Q9H6Z4: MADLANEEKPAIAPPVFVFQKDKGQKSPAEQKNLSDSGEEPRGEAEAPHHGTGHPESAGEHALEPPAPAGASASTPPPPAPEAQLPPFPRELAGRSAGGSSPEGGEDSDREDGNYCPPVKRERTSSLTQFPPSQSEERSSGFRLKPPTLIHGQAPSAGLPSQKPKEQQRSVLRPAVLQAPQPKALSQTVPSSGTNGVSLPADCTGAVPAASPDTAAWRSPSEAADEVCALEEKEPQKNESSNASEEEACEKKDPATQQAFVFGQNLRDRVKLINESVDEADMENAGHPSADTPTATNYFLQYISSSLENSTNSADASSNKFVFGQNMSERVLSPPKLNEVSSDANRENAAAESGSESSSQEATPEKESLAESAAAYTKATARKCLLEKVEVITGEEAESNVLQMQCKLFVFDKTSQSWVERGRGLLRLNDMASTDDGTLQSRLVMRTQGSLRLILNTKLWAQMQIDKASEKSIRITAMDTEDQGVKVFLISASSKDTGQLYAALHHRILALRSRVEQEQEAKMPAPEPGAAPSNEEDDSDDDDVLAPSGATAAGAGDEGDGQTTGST
UniProt Q15907: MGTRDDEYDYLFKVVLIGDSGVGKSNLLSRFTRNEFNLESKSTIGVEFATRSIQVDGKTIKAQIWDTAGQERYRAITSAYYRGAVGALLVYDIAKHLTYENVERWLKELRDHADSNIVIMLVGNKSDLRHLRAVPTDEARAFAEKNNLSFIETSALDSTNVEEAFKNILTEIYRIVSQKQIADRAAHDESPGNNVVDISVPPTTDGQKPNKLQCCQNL
UniProt Q8WUD1: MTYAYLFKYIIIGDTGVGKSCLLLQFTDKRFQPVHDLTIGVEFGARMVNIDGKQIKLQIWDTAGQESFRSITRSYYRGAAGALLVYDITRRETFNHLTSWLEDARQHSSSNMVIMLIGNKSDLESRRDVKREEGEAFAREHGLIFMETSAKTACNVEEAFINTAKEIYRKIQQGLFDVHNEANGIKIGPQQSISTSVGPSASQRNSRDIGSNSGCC
UniProt Q53S08: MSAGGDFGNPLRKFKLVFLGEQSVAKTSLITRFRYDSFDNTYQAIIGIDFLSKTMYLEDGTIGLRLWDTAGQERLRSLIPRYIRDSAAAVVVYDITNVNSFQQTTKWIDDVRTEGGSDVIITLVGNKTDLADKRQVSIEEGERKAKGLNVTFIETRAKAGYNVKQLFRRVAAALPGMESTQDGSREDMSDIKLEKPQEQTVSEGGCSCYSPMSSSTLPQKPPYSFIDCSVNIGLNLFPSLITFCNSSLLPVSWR

What was measured:
Assay in all cases: log2 fold change, soluble protein after heating vs DMSO (PISA); higher = thermal stabilisation; K562 cells, 10 uM, 30 min; active = over 0.2 and 3.5 SD of the protein, either way, in both replicates (recomputed)
erlotinib = compound: C#Cc1cccc(Nc2ncnc3cc(OCCOC)c(OCCOC)cc23)c1 [erlotinib]
How it was run: (§1)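 K562 cells at 2×10^6 cells/mL were treated for 30 min with 10 μM compound, and aliquots were heated for 3 min over 48°C-58°C before pooling. Extraction used PBS with 0.5% NP-40 at 4°C, and soluble protein was the supernatant after 21,000xg for 90 min, measured by TMTpro 16plex LC-MS/MS with channel sums equalised. Thermal stability values, relative to control samples and from duplicates, are log2 fold changes.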

[1] = compound: C/C(=N\NC(=O)C1=CC(=CC=C1)S(=O)(=O)N2CCOCC2)/C3=C(C=CC(=C3)Cl)O
How it was run: as §1

[2] = compound: C1=CC(=C(C=C1Cl)C2=NC3=NC=CN=C3C(=N2)NC4=CC=NC=C4)F
How it was run: as §1

[3] = compound: C1=CC(=CC=C1C2=NC3=C(N2)C=C(C=C3)C(=O)N)OC4=CC=C(C=C4)Cl
How it was run: as §1

[4] = compound: C1=CC2=C(C=CC(=C2)/C=C\3/C(=O)NC(=NCC4=CC=CS4)S3)N=C1
How it was run: as §1

[5] = compound: C1=CC2=NC=CN=C2C=C1/C=C/3\C(=O)NC(=O)S3
How it was run: as §1

[6] = compound: C1=CC=C(C=C1)C2=NC(=C(N2)C3=CC=NC=C3)C4=CC(=C(C=C4)Cl)O
How it was run: as §1

[7] = compound: C1=CC=C2C(=C1)C3=NNC4=CC=CC(=C43)C2=O
How it was run: as §1

[8] = compound: C1CCN(C1)C(=O)NC2=CC=CC(=C2)NC3=NC=C(C(=N3)NCCC4=CN=CN4)Br
How it was run: as §1

[9] = compound: C1CN(CCC1(CC2=CC=C(C=C2)Cl)N)C3=NC=NC4=C3C=CN4
How it was run: as §1

IRAK-1-4 Inhibitor I = compound: C1COCCN1CCN2C3=CC=CC=C3N=C2NC(=O)C4=CC(=CC=C4)[N+](=O)[O-] [IRAK-1-4 Inhibitor I]
How it was run: as §1

ibrutinib = compound: C=CC(=O)N1CCC[C@@H](n2nc(-c3ccc(Oc4ccccc4)cc3)c3c(N)ncnc32)C1 [ibrutinib]
How it was run: as §1

[10] = compound: CC(=O)c1cnc2ccc(-c3cc(Cl)c(O)c(Cl)c3)nc2c1N[C@H]1CC[C@H](CN(C)C)CC1
How it was run: as §1

ralimetinib = compound: CC(C)(C)Cn1c(N)nc2ccc(-c3[nH]c(C(C)(C)C)nc3-c3ccc(F)cc3)nc21 [ralimetinib]
How it was run: as §1

[11] = compound: CC(C)(O)CC(=O)NCCn1ccc2ncnc(Nc3ccc(Oc4cccc(C(F)(F)F)c4)c(Cl)c3)c21
How it was run: as §1

[12] = compound: CC(C)C1=C2N=C(C=C(N2N=C1)NCC3=CC=CC=C3)NCCCCCCN
How it was run: as §1

[13] = compound: CC(C)C[C@@H](C=O)NC(=O)[C@H](CC(C)C)NC(=O)[C@H](CC(C)C)NC(=O)OCc1ccccc1
How it was run: as §1

pinometostat = compound: CC(C)N(C[C@H]1O[C@@H](n2cnc3c(N)ncnc32)[C@H](O)[C@@H]1O)[C@H]1C[C@@H](CCc2nc3cc(C(C)(C)C)ccc3[nH]2)C1 [pinometostat]
How it was run: as §1

[14] = compound: CC1=C(C(CC(=O)N1)C2=CC=C(C=C2)C(F)(F)F)C(=O)NC3=C(C=C4C(=C3)C=NN4)F
How it was run: as §1

[15] = compound: CC1=C(C2=C(C=C1)C(=O)C3=CC=CC=C3N2CCCN)C
How it was run: as §1

Measured: log2 fold change

RABEP1 (UniProt Q15276)
inactive: erlotinib 0.079 | [1] -0.037 | [2] 0.004 | [3] -0.015 | [4] 0.064 | [5] -0.016 | [6] 0.034 | [7] -0.018 | [8] -0.025 | [9] 0.013 | IRAK-1-4 Inhibitor I 0.04 | ibrutinib -0.018 | [10] 0.02 | ralimetinib 0.079 | [11] -0.02 | [12] 0.004 | [13] -0.013 | pinometostat -0.001 | [14] -0.068 | [15] 0.027

RABL6 (UniProt Q3YEC7)
inactive: erlotinib 0.049 | [1] -0.021 | [2] -0.022 | [3] -0.014 | [4] 0.006 | [5] -0.064 | [6] -0.015 | [7] -0.006 | [8] -0.022 | [9] 0.01 | IRAK-1-4 Inhibitor I -0.022 | ibrutinib 0.023 | [10] -0.172 | ralimetinib -0.034 | [11] -0.002 | [12] 0.048 | [13] 0.047 | pinometostat 0.018 | [14] 0.006 | [15] 0.081

RAB24 (UniProt Q969Q5)
inactive: erlotinib -0.023 | [1] 0.056 | [2] 0.087 | [3] -0.034 | [4] -0.01 | [5] 0.035 | [6] -0.051 | [7] 0.033 | [8] 0.019 | [9] 0.018 | IRAK-1-4 Inhibitor I 0.037 | ibrutinib 0.051 | [10] 0.037 | ralimetinib -0.082 | [11] 0.025 | [12] 0.015 | [13] -0.004 | pinometostat -0.026 | [14] 0.004 | [15] -0.032

RABIF (UniProt P47224)
inactive: erlotinib 0.034 | [1] 0.081 | [2] 0.011 | [3] -0.034 | [4] -0.076 | [5] 0.007 | [6] 0 | [7] -0.049 | [8] 0.002 | [9] 0.057 | IRAK-1-4 Inhibitor I 0.088 | ibrutinib 0.042 | [10] 0.026 | ralimetinib 0.013 | [11] 0.048 | [12] 0.154 | [13] -0.036 | pinometostat 0 | [14] 0.038 | [15] -0.024

RAD23B (UniProt P54727)
inactive: erlotinib -0.008 | [1] -0.014 | [2] 0.036 | [3] -0.017 | [4] 0.009 | [5] -0.027 | [6] -0.036 | [7] -0.027 | [8] 0.028 | [9] 0.052 | IRAK-1-4 Inhibitor I 0.059 | ibrutinib 0.016 | [10] -0.004 | ralimetinib -0.086 | [11] 0.036 | [12] 0.084 | [13] -0.049 | pinometostat -0.017 | [14] 0.031 | [15] -0.039

RAB5B (UniProt P61020)
inactive: erlotinib -0.018 | [1] -0.037 | [2] -0.014 | [3] 0.017 | [4] -0.085 | [5] 0.007 | [6] 0.068 | [7] 0.025 | [8] 0.004 | [9] 0.066 | IRAK-1-4 Inhibitor I 0.028 | ibrutinib 0.02 | [10] -0.012 | ralimetinib 0.111 | [11] -0.083 | [12] 0.099 | [13] -0.039 | pinometostat -0.043 | [14] 0.023 | [15] 0.014

RAB4B isoform 2 (UniProt P61018)
inactive: erlotinib 0.014 | [1] 0.034 | [2] 0 | [3] -0.01 | [4] 0.049 | [5] 0.046 | [6] -0.04 | [7] 0.001 | [8] 0.032 | [9] 0.065 | IRAK-1-4 Inhibitor I 0.044 | ibrutinib 0.014 | [10] -0.006 | ralimetinib -0.041 | [11] 0.046 | [12] 0.059 | [13] -0.007 | pinometostat -0.027 | [14] -0.029 | [15] 0.027

RAD1 (UniProt O60671)
inactive: erlotinib -0.025 | [1] 0.02 | [2] 0.089 | [3] 0.032 | [4] 0.08 | [5] 0.031 | [6] 0.027 | [7] 0.003 | [8] 0.07 | [9] 0.07 | IRAK-1-4 Inhibitor I 0.014 | ibrutinib 0.003 | [10] -0.007 | ralimetinib -0.048 | [11] 0.024 | [12] 0.016 | [13] -0.056 | pinometostat -0.066 | [14] 0.018 | [15] -0.079

RAPGEF6 isoform 4 (UniProt Q8TEU7)
inactive: erlotinib -0.034 | [1] -0.018 | [2] -0.008 | [3] 0.054 | [4] 0.083 | [5] 0.209 | [6] -0.117 | [7] 0.003 | [8] 0.03 | [9] 0.203 | IRAK-1-4 Inhibitor I 0.01 | ibrutinib -0.001 | [10] -0.1 | ralimetinib 0.09 | [11] 0.006 | [12] 0.02 | [13] 0.092 | pinometostat 0.07 | [14] -0.031 | [15] -0.282

RBFOX2 isoform 8 (UniProt O43251)
inactive: erlotinib 0.04 | [1] -0.119 | [2] -0.122 | [3] -0.015 | [4] -0.108 | [5] -0.098 | [6] -0.169 | [7] 0.069 | [8] 0.093 | [9] 0.064 | IRAK-1-4 Inhibitor I -0.017 | ibrutinib 0.064 | [10] 0.032 | ralimetinib 0.124 | [11] -0.149 | [12] -0.076 | [13] -0.094 | pinometostat 0.1 | [14] 0.248 | [15] -0.025

RACGAP1 (UniProt Q9H0H5)
inactive: erlotinib 0.061 | [1] 0.016 | [2] 0.006 | [3] 0 | [4] 0.057 | [5] -0.071 | [6] 0.018 | [7] 0.032 | [8] -0.014 | [9] -0.179 | IRAK-1-4 Inhibitor I -0.11 | ibrutinib -0.154 | [10] -0.144 | ralimetinib 0.087 | [11] -0.167 | [12] -0.284 | [13] 0.137 | pinometostat 0.165 | [14] -0.107 | [15] 0.036

RAD51AP1 (UniProt Q96B01)
inactive: erlotinib 0 | [1] -0.091 | [2] 0.016 | [3] 0.061 | [4] 0.058 | [5] 0.049 | [6] -0.066 | [7] -0.015 | [8] -0.047 | [9] -0.065 | IRAK-1-4 Inhibitor I 0.02 | ibrutinib 0.002 | [10] 0.034 | ralimetinib -0.079 | [11] -0.045 | [12] 0.03 | [13] 0.136 | pinometostat 0.012 | [14] 0.017 | [15] -0.167

RANBP3 (UniProt Q9H6Z4)
inactive: erlotinib 0.004 | [1] 0.056 | [2] 0.065 | [3] -0.027 | [4] -0.033 | [5] -0.003 | [6] 0.04 | [7] 0.023 | [8] -0.021 | [9] 0.048 | IRAK-1-4 Inhibitor I 0.005 | ibrutinib 0.026 | [10] 0.011 | ralimetinib -0.014 | [11] -0.019 | [12] 0.04 | [13] 0.012 | pinometostat -0.055 | [14] -0.013 | [15] -0.019

RAB11B (UniProt Q15907)
inactive: erlotinib 0.014 | [1] -0.077 | [2] 0.018 | [3] -0.011 | [4] -0.032 | [5] 0.032 | [6] -0.058 | [7] -0.038 | [8] 0.08 | [9] 0.081 | IRAK-1-4 Inhibitor I 0.075 | ibrutinib -0.006 | [10] 0.026 | ralimetinib -0.092 | [11] 0.058 | [12] 0.065 | [13] -0.006 | pinometostat -0.017 | [14] -0.003 | [15] -0.068

Two records drawn at random from the list so far:
RAB5B (UniProt P61020)
inactive: erlotinib -0.018 | [1] -0.037 | [2] -0.014 | [3] 0.017 | [4] -0.085 | [5] 0.007 | [6] 0.068 | [7] 0.025 | [8] 0.004 | [9] 0.066 | IRAK-1-4 Inhibitor I 0.028 | ibrutinib 0.02 | [10] -0.012 | ralimetinib 0.111 | [11] -0.083 | [12] 0.099 | [13] -0.039 | pinometostat -0.043 | [14] 0.023 | [15] 0.014

RAB4B isoform 2 (UniProt P61018)
inactive: erlotinib 0.014 | [1] 0.034 | [2] 0 | [3] -0.01 | [4] 0.049 | [5] 0.046 | [6] -0.04 | [7] 0.001 | [8] 0.032 | [9] 0.065 | IRAK-1-4 Inhibitor I 0.044 | ibrutinib 0.014 | [10] -0.006 | ralimetinib -0.041 | [11] 0.046 | [12] 0.059 | [13] -0.007 | pinometostat -0.027 | [14] -0.029 | [15] 0.027

(list continues)

RAB2B (UniProt Q8WUD1)
inactive: erlotinib -0.086 | [1] 0.012 | [2] 0.072 | [3] 0.034 | [4] -0.015 | [5] 0.022 | [6] -0.022 | [7] -0.015 | [8] -0.04 | [9] 0.03 | IRAK-1-4 Inhibitor I 0.032 | ibrutinib 0.007 | [10] 0.04 | ralimetinib 0.029 | [11] -0.004 | [12] 0.028 | [13] -0.036 | pinometostat -0.035 | [14] -0.031 | [15] 0

RAB6D (UniProt Q53S08)
inactive: erlotinib 0.121 | [1] -0.017 | [2] 0 | [3] 0.001 | [4] 0.026 | [5] 0.037 | [6] -0.005 | [7] 0.051 | [8] -0.065 | [9] 0.202 | IRAK-1-4 Inhibitor I 0.044 | ibrutinib 0.001 | [10] 0.001 | ralimetinib 0.04 | [11] 0.051 | [12] 0.085 | [13] 0.006 | pinometostat -0.041 | [14] 0.023 | [15] 0.018
